The source of these data is article PMC10496292.

No constants are given. Whether binding was seen depends on the method and setting. In cells and extracts the contact can be indirect. Some entries that bind do so weakly or less than the wild type. Where a sequence is shown, tags or fusion partners need not be part of it.

This assay deals with T1, Prefoldin 2 (Pfd2/Gim4), HA-tagged (S. cerevisiae) (UniProt P40005).
T1 sequence: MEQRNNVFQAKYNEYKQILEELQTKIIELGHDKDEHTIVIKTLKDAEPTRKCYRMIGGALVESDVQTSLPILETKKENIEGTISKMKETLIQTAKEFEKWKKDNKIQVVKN
Briefly: co-IP; Lysate of Δpfd2 cells expressing PFD2-HA (grown at 25 °C, or shifted to 37 °C for 4 h) on Dynabeads goat anti-mouse IgG coated with anti-HA antibody; lysis buffer 50 mM HEPES-KOH pH 7.5, 100 mM NaCl, 1 mM EDTA, 5% glycerol; overnight at 4 °C; elution in Laemmli buffer, Western blot.

B1: Tom70 (receptor, UniProt P07213 1-617)
chain: MKSFITRNKTAILATVAATGTAIGAYYYYNQLQQQQQRGKKNTINKDEKKDTKDSQKETEGAKKSTAPSNPPIYPVSSNGEPDFSNKANFTAEEKDKYALALKDKGNQFFRNKKYDDAIKYYNWALELKEDPVFYSNLSACYVSVGDLKKVVEMSTKALELKPDYSKVLLRRASANEGLGKFADAMFDLSVLSLNGDFNDASIEPMLERNLNKQAMSKLKEKFGDIDTATATPTELSTQPAKERKDKQENLPSVTSMASFFGIFKPELTFANYDESNEADKELMNGLSNLYKRSPESYDKADESFTKAARLFEEQLDKNNEDEKLKEKLAISLEHTGIFKFLKNDPLGAHEDIKKAIELFPRVNSYIYMALIMADRNDSTEYYNYFDKALKLDSNNSSVYYHRGQMNFILQNYDQAGKDFDKAKELDPENIFPYIQLACLAYRENKFDDCETLFSEAKRKFPEAPEVPNFFAEILTDKNDFDKALKQYDLAIELENKLDGIYVGIAPLVGKATLLTRNPTVENFIEATNLLEKASKLDPRSEQAKIGLAQMKLQQEDIDEAITLFEESADLARTMEEKLQAITFAEAAKVQQRIRSDPVLAKKIQETLAKLREQGLM
In the case of B1, the binding result is on record as “binds”.

B2: Mia40 (protein, UniProt P36046 32-403)
chain: MASSPQFGRNSNQEKTAGFIMGILSMAGALYFIAPNRKPLFASRKVESDKTAEEELSSGGEQSPENEDDNNSKSDENGDDNDSKNDETEAGPQLGGDKIGASKVAEDGELVVLAEEDNKSSEDKDTDESKVSTKDDEQSNEDNATANNQKDENISSENSEENTSDKTLDNNAGSSEKKDPEHSDDEKSQQGQSDDKTTTEDNNGEEESSKKTVSDSENSAKQSESSDEEKEELRKQEEKQMGPTEEEVQHEGAYNPDTGEINWDCPCLGGMAHGPCGEEFKSAFSCFVYSEAEPKGIDCVEKFQHMQDCFRKYPEHYAEQLKETSDDEEPQDKVKVNTIESAPNVSSAKENAAKKAEQSDVKKEPLNEESKP
Regarding B2, the binding entry is “no binding”.
